Data set [1] can be described thus: Circular dichroism wavelength scans. It is filed as physicochemical. The conditions noted are these: for θ208 / θ222 / θ222/θ208: 25 °C, 15 μM, pH 4.0. On the technique in general: Circular dichroism is widely used to follow secondary structure.
A short description of data set [2]: ATR-FTIR peak deconvolution of secondary structure. It is filed as physicochemical.

Values joined by “and” are separate entries in the source; they are usually repeats but may differ in a detail not shown here. Identical values can stand only once.

In the case of “Q: rationally designed pentameric coiled-coil derived from C, SEQ ID NO: 23 (MRGSHHHHHHGSIEGRVKEITFLKNTAPQMLRELQETNAALQDVRELLRQQSKL) [reference compound]”, in data set [1], the θ208 is on record as −10,000 ± 6,000 mdeg · cm^2 · dmol^−1, the θ222 is −8,000 ± 3,000 mdeg · cm^2 · dmol^−1 and the θ222/θ208 amounted to 1.04 ± 0.57. Moreover, in data set [1] (fibers pH 4.0, text), the “MRE minimum at 208 nm” value is −10,000±6,000 deg·cm^2·dmol^−1 and the “MRE minimum at 222 nm” value is listed as −8,000±3,000 deg·cm^2·dmol^−1. In addition, in data set [2] (native), the “3-10 Helix” value is 19.1%; the “Turns/Coils (combined, random content)” value came to 25.1±10.3%; the Unordered is given as 0.0%; the α-helix was 32.8±4.2% and 32.8%. In addition, in data set [2] (native), the β-sheet is on record as 29.2% and the “β-sheet (combined)” value is on record as 42.4 ± 4.9%. For the same substance, in data set [2] (w/CCM), the “3-10 Helix” value is given as 16.3%, the “Turns/Coils (combined)” value was found to be 31.6 ± 3.8%, the Unordered worked out at 0.0% and the α-helix was determined as 32.9%. In data set [2] (w/CCM), the β-sheet is reported as 32.5% and the “β-sheet (combined)” value is 40.3 ± 9.7%.

In the case of “Q2: coiled-coil protein redesigned from Q for reduced lateral assembly, SEQ ID NO: 11 (MRGSHHHHHHGSIEGRVKELLFLKKTAEQMLEELKETNKALHDVRHLLENQSKL) [Protein Q2]”, in data set [1], the θ208 is recorded as −19,000 ± 2,000 mdeg · cm^2 · dmol^−1, the θ222 is given as −17,000 ± 2,000 mdeg · cm^2 · dmol^−1 and the θ222/θ208 is recorded as 0.91 ± 0.05. Further, in data set [1] (Q2 in solution, 4 °C), the “MRE at 208 nm” value is listed as −3,400±1,000 deg·cm^2·dmol^−1 and the “MRE at 222 nm” value was −2,600±600 deg·cm^2·dmol^−1. Moreover, in data set [1] (Q2 post-gelation), the 222/208 ratio was 3.35±0.37 and the “MRE single minimum at 227 nm” value is on record as −3,600±800 deg·cm^2·dmol^1. Moreover, in data set [2] (Gel, 2 mM), the 3-10 Helix is given as 5.4 % composition, the “Antiparallel β-sheet” value is given as 11.3 % composition, the Unordered was determined as 0.0 % composition and the α-helix amounted to 51.5 % composition. The substance also had a β-sheet in data set [2] (Gel, 2 mM) of 29.5 % composition. Moreover, in data set [2] (Solution, 2 mM), the 3-10 Helix stood at 8.8 % composition, the “Antiparallel β-sheet” value is listed as 7.6 % composition, the Unordered is given as 24.1 % composition and the α-helix worked out at 38.7 % composition. In data set [2] (Solution, 2 mM), this substance displayed a β-sheet of 18.7 % composition. For the same substance, in data set [2] (native), the “3-10 Helix” value came out at 8.4%; the “Turns/Coils (combined, random content)” value is 23.7 ± 9.6%; the Unordered was 0.0%; the α-helix is 50.8±6.0% and 50.8%. For the same substance, in data set [2] (native), the β-sheet is reported as 16.3% and the “β-sheet (combined)” value was 36.5 ± 6.2%. In data set [2] (solution to gel), the “change in random coil conformation upon gelation” value is −27.3% and the “change in β-sheet conformation upon gelation” value was “+14.5%”. In addition, in data set [2] (w/CCM), the “3-10 Helix” value stood at 16.9%, the “Turns/Coils (combined)” value worked out at 26.7 ± 1.7%, the Unordered worked out at 0.0% and the α-helix is reported as 46.9%. In data set [2] (w/CCM), the β-sheet was 33.5% and the “β-sheet (combined)” value was determined as 28.9 ± 13.6%.
